Test results reported in PubChem BioAssay AID1347076 (National Center for Advancing Translational Sciences (NCATS), 2019).
The campaign covered roughly 400,000 compounds. About 13,000 (3.2%) were called active. The shares of active, inactive and inconclusive entries below differ from those in the screen. Calls follow the shape of the dose curve; as a rule, active = well fitted cell-killing curve with a large enough effect; inconclusive = small, poorly fitted or top-dose-only effect, or effect the other way; inactive = flat fitted curve, though single readings scatter. A potency beside an inconclusive call is a rough fit, not a confirmed value.

Assay: qHTS assay for MDR1-selective chemotherapeutics: Primary screen using the drug-selected MDR subline cells KB-V1; also: nearly all actives have a fitted effect of over 60% in size
Conditions: KB-V1 MDR cells viability, CellTiter-Glo, 72 h; activity change, negative = cytotoxicity: at 46.1 µM (top of the series)
Method in brief: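 Compound-treated KB-V1 multidrug-resistant cells, 72 h, 37 degrees C; viability by CellTiter-Glo. Fitted qHTS curves give the values.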
% is scaled to controls: 0 for no effect and ±100 for the full control effect; potency is read from the fitted curve at half-maximal effect.

| Structure (SMILES) | activity change, negative = cytotoxicity | Potency |
| --- | --- | --- |
| COc1ccc(NS(=O)(=O)c2ccc3c(c2)OCCO3)cc1OC | inactive: -6.83% |  |
| NC(Cc1ccc(Cl)cc1)c1csc(Nc2ccc(C(F)(F)F)cn2)n1 (stereo not drawn) |  | inconclusive: 29.1 µM [cytotoxic, single point] |
| Cc1ccc(-n2nnnc2SCc2ccc(C(=O)O)cc2)cc1C | inconclusive: -10.7% |  |
| CS(=O)c1ccccc1COC(=O)Nc1cccc(Cl)c1 (stereo not drawn) |  | inconclusive: 16.4 µM [cytotoxic, partial curve] |
| O=S(=O)(c1ccc(NC(=S)Nc2ccc(OC(F)F)cc2)cc1)N1CCOCC1 |  | active: 23.1 µM |
| CN(C)c1cc[n+](CC(=O)Nc2ccc(Oc3ccccc3)cc2)cc1 |  | inconclusive: 18.4 µM [rising, single point] |
| COc1cccc(-c2cc3nc(-c4ccccc4)cc(=O)n3[nH]2)c1 |  | active: 4.61 µM |
| CCc1ccccc1S(=O)(=O)Cc1ccc(C(=O)NCCc2ccc(Cl)cc2)o1 |  | inconclusive: 29.1 µM [cytotoxic, single point] |
| O=C(Nc1ccccc1)/C(=C/c1cccc(Br)c1)NC(=O)c1ccco1 |  | inconclusive: 29.1 µM [cytotoxic, partial curve, poor fit] |
| CCC(CO)N=CC1=C(O)CC(C)(C)CC1=O (stereo not drawn) |  | inconclusive: 9.2 µM [rising, partial curve] |
| O=C1N/C(=C\c2ccc(N3CCOCC3)c(F)c2)C(=O)N1Cc1ccccc1 | inactive: -23.3% |  |
| CN(C)CCOc1ccc(-c2c(-c3ccccc3)sc3ccccc23)cc1 |  | inconclusive: 2.59 µM [cytotoxic, full curve] |
| CCOC(=O)COc1ccc2nsnc2c1 |  | inconclusive: 18.4 µM [rising, single point] |
| CC(Cn1cnc2ccccc21)C(=O)O (stereo not drawn) | inactive: -1.34% |  |
| Cc1ccc(NC(=O)c2cc3c(s2)CCCC3)cc1S(=O)(=O)Nc1ccccc1Cl | inconclusive: -92.6% |  |
| COc1ccc(-n2ncc3c(N4CCN(c5cc(C)ccc5C)CC4)ncnc32)cc1 | inactive: -4.14% |  |
| Cc1cc(Nc2ccc([N+](=O)[O-])cc2)c2ccccc2n1 | inactive: -11.1% |  |
| CCN(CC)CC(=O)Nc1ccc2c(c1)N(C(=O)CN(CC)CC)c1ccccc1CC2 |  | inconclusive: 20.6 µM [cytotoxic, partial curve] |
| COc1ccc(NC(=O)c2cc(S(=O)(=O)N3CCOCC3)ccc2C)cc1S(=O)(=O)N1CCOCC1 |  | inconclusive: 29.1 µM [rising, single point] |
| C#CCn1cc(Cl)cc(C(=O)Nc2ccccc2)c1=O | inactive: -3.07% |  |
| CCN1CCN(C(=O)/C(C#N)=C/c2ccc(OC(F)F)cc2)CC1 | inactive: 6.24% |  |
| CN(C(=O)c1coc(=O)c2ccccc12)c1ccc(Br)cc1 | inactive: -3.93% |  |
| Cc1ccc(S(=O)(=O)NNC(=O)c2cccnc2)cc1 |  | inconclusive: 6.51 µM [rising, full curve, poor fit] |
| COn1c(SCc2cccnc2)nc2ccccc2c1=O | inconclusive: -33.3% [cytotoxic] |  |
| O=C(CCc1ccccn1)NC1CCCc2c1cnn2-c1ccc(F)cc1F (stereo not drawn) |  | active: 20.6 µM |

| Structure (SMILES) | activity change, negative = cytotoxicity | Potency |
| --- | --- | --- |
| O=C(O)c1cccc(S(=O)(=O)Nc2cccc(S(=O)(=O)N3CCCCCC3)c2)c1 |  | inconclusive: 18.4 µM [rising, single point] |
| Cc1onc(-c2ccccc2Cl)c1C(=O)OCc1nnc(-c2ccccc2)o1 |  | inconclusive: 8.2 µM [cytotoxic, partial curve] |
| CCOC(=O)c1sc(N(Cc2ccccc2)C(=O)CCl)nc1C | inactive: -9.36% |  |
| CCc1ccc(OCCNC(=O)c2ccccc2SCc2ccccc2)cc1 |  | inconclusive: 20.6 µM [cytotoxic, single point] |
| O=C(OCC(=O)N1CCCc2ccccc21)c1ccc(Cl)nc1 |  | inconclusive: 29.1 µM [cytotoxic, single point] |
| Cc1ccc(OCCCn2c(-c3ccc(Cl)cc3)nc3ccccc3c2=O)cc1C |  | inconclusive: 4.11 µM [rising, full curve, poor fit] |
| CCN1CCCC1CNC(=O)c1ccc2c(c1)NC(=O)/C(=C\c1ccccc1F)S2 (stereo not drawn) | inactive: -4.63% |  |
| CCc1ccc(CN(C)Cc2nc(Cc3ccc(OC)c(OC)c3)no2)nc1 |  | inconclusive: 16.4 µM [cytotoxic, partial curve] |
| CCCS(=O)(=O)NC(=O)C1(C)CCN(C(=O)c2c(-c3ccccc3)noc2C)C1 (stereo not drawn) | inactive: -0.907% |  |
| CS(=O)(=O)N(CC(=O)N1CCN(Cc2ccccc2)CC1)c1ccc2c(c1)OCCO2 |  | inconclusive: 29.1 µM [cytotoxic, single point] |
| COc1ccc(N2C(=O)CC(N3CCCCC3)C2=O)cc1 (stereo not drawn) | inactive: 16.3% |  |
| Cc1ccc(C(=O)NCCNC(=O)Cc2ccccc2)cn1 | inactive: 14% |  |
| COc1ccc(C)cc1-n1nnnc1SCC(=O)NC1CCS(=O)(=O)C1 (stereo not drawn) |  | inconclusive: 29.1 µM [rising, single point] |
| O=C1NC(c2ccccc2)N=C2Oc3ccccc3C=C12 (stereo not drawn) |  | active: 4.11 µM |
| O=C(NCc1ccccc1)C1C(c2ccccc2)=Nc2ccccc2N1C(=O)c1ccncc1 (stereo not drawn) |  | inconclusive: 8.2 µM [cytotoxic, partial curve, poor fit] |
| CC1(c2ccc(OCC#N)cc2)C=C(c2ccc(OCC#N)cc2)n2nc(C(F)(F)F)nc2N1 (stereo not drawn) |  | inconclusive: 16.4 µM [cytotoxic, single point] |
| CCc1ccc(NC(=O)COC(=O)CN2C(=O)COc3ccccc32)cc1 |  | inconclusive: 3.66 µM [rising, partial curve] |
| Cc1ccc(C(=O)NCCN2CCC(n3c(=O)[nH]c4ccccc43)CC2)cc1F | inactive: -22.3% |  |
| Cc1ccc2nc(-c3ccco3)c(Cc3cccc(Cl)c3)n2c1 | inactive: 1.67% |  |
| CN(C)c1nc(N)nc2c1ncn2C1OC(CO)CC1O (stereo not drawn) | inactive: -7.16% |  |
| CCn1c(SCC(=O)Nc2ccccc2N2CCCCC2)nc2c1c(=O)n(C)c(=O)n2C |  | inconclusive: 10.3 µM [cytotoxic, partial curve] |
| O=C(Nc1nc2cc(Cl)ccc2s1)C1CCCN(S(=O)(=O)c2cccc3cccnc23)C1 (stereo not drawn) |  | inconclusive: 29.1 µM [cytotoxic, single point] |
| COc1ccc(NC(=O)CCn2c(=S)[nH]c3ccccc3c2=O)cc1OC |  | inconclusive: 2.59 µM [rising, full curve, poor fit] |
| CN(C)c1ccnc2sc3c(=O)n(-c4ccccc4)cnc3c12 |  | inconclusive: 18.4 µM [cytotoxic, partial curve, poor fit] |
| O=[N+]([O-])c1ccc(/C=N/Nc2nc(N3CCCCC3)nc(N3CCCCC3)n2)o1 |  | inconclusive: 16.4 µM [cytotoxic, partial curve] |

Entries shown so far that have bromine:

| Structure (SMILES) | activity change, negative = cytotoxicity | Potency |
| --- | --- | --- |
| O=C(Nc1ccccc1)/C(=C/c1cccc(Br)c1)NC(=O)c1ccco1 |  | inconclusive: 29.1 µM [cytotoxic, partial curve, poor fit] |
| CN(C(=O)c1coc(=O)c2ccccc12)c1ccc(Br)cc1 | inactive: -3.93% |  |

More compounds.

| Structure (SMILES) | activity change, negative = cytotoxicity | Potency |
| --- | --- | --- |
| COc1ccc(N2CCN(CC(=O)NC(=O)NCc3ccco3)CC2)cc1 |  | inconclusive: 23.1 µM [cytotoxic, partial curve, poor fit] |
| O=C(c1ccccc1)N(c1ccccc1)c1ccccc1O |  | inconclusive: 29.1 µM [cytotoxic, single point] |
| CC1(C)CC(=O)c2c(nc(SCC(=O)Nc3nsc(-c4ccccc4)n3)c(C#N)c2-c2ccccc2)C1 |  | inconclusive: 25.9 µM [cytotoxic, single point] |
| Cc1cc(C(=O)Nc2ccccc2C(=O)O)c(C)o1 | inactive: -11.7% |  |
| Cc1cc(C)cc(NC(=O)CCn2cnc3ccccc3c2=O)c1 | inactive: -8.81% |  |
| CCOc1ccc(OCc2ccc(C(=O)N3CCCC3)o2)cc1 |  | inconclusive: 29.1 µM [cytotoxic, single point] |
| COc1cc(OC)cc(C(=O)NC(=S)N2CCCCCC2)c1 |  | active: 18.4 µM |
| CN(Cc1c(F)cccc1Cl)C(=O)CNC(=O)c1sc2ccccc2c1Cl |  | inconclusive: 18.4 µM [cytotoxic, partial curve] |
| CCN(CC)S(=O)(=O)c1cccc(-c2n[nH]c(=S)n2/N=C/c2ccc(OC)cc2)c1 | inactive: -4.36% |  |
| CCOc1cc(OCC)cc(C(=O)NCCN2CCC(n3c(=O)[nH]c4ccccc43)CC2)c1 |  | inconclusive: 20.6 µM [cytotoxic, partial curve] |
| Cc1ccc(C(=O)N2CCN(c3ccc(NC(=O)c4cccnc4)cc3)CC2)cc1 | inconclusive: -47.2% [cytotoxic] |  |
| Cc1cc(NNC(=O)c2cccc(C(F)(F)F)c2)nc2c1c(C)nn2C |  | inconclusive: 3.26 µM [cytotoxic, full curve] |
| CS(=O)(=O)N(CC(=O)NCCSc1ccccn1)c1cccc2ccccc12 |  | inconclusive: 8.2 µM [cytotoxic, partial curve] |
| CCCn1c(-c2cccnc2Cl)nc2cc(Cl)c(Cl)cc21 |  | active: 16.4 µM |
| O=[N+]([O-])c1ccccc1CNC1CCCc2ccccc21 (stereo not drawn) |  | inconclusive: 25.9 µM [cytotoxic, partial curve, poor fit] |
| O=C(Nc1ccccc1)c1cc(C2CCCN(C(=O)CCc3ccccc3)C2)on1 (stereo not drawn) | inactive: 14.9% |  |
| COc1ccc(NC2CCCN(C(=O)COc3ccc(Cl)cc3C)C2)cc1OC (stereo not drawn) |  | active: 7.31 µM |
| COC(=O)c1ccc(COc2cc(C)ccc2C)o1 | inactive: 13% |  |
| Clc1ccc(-c2nnc(SCc3ccon3)o2)c(Cl)c1 |  | inconclusive: 23.1 µM [cytotoxic, single point] |
| Cc1ccc(-n2nnnc2SCC(=O)NCCc2ccccc2)cc1C | inactive: 2.23% |  |
| CCN1CCN(CCC(=O)Nc2cccc(OC)c2)CC1 |  | inconclusive: 29.1 µM [rising, single point] |
| O=C(NCCCN1CCCCC1)c1ccc2c(c1)ncn2C1CCCC1 |  | inconclusive: 29.1 µM [rising, single point] |
| Cc1ccc(OCCn2c(C3CC(=O)N(Cc4ccc(F)cc4)C3)nc3ccccc32)c(C)c1 (stereo not drawn) |  | inconclusive: 20.6 µM [cytotoxic, partial curve, poor fit] |
